PubChem BioAssay AID2685 (National Center for Advancing Translational Sciences (NCATS), 2010)
The other results are listed elsewhere or left out. The main result of the screen is listed elsewhere. These columns were measured beside it and carry no call. Compounds called inactive in the main read-out are mostly missing here. Words in brackets tell the shape of the fitted curve; partial curves, single points and poor fits give uncertain potencies. Where a SMILES comes first, the peptide text is derived from it. The star is where a group is joined. Boc = CC(C)(C)OC(=O)*

Assay: qHTS Assay for Lipid Storage Modulators in Drosophila S3 Cells;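 on cell number change: cells counted by Cell Tracker Red CMTPX staining in the red channel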
Conditions: BODIPY lipid droplet fluorescence, 18-24 h; for cell number change: measured here: cell count max response, cells fed with added oleic acid
How it was run: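 Laser-scanning cytometry quantifies lipid droplet accumulation (500–530 nm total intensity; droplet/cell object ratio) in oleic acid-fed (400 uM added) Drosophila S3 cells treated with a concentration series. 20 uM Triacsin C defined 100% inhibition.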

[1] = measured here: cell number channel AC50, cells fed with added oleic acid
[2] = measured here: lipid fluorescence (Fed channel) AC50, cells fed with added oleic acid

Row | Structure (SMILES) | cell number change [%] | AC50 [1] | AC50 [2]
1 | O=C(CCl)NCCNC(=O)c1cc(OCC(F)(F)F)ccc1OCC(F)(F)F | 24.1 | 0.00461 µM [rising, full curve, poor fit] | 
2 | O=C1CC(c2cccnc2)c2cc3c(cc2N1)OCCO3 (stereo not given) | 9.06 | 0.116 µM [rising, full curve, poor fit] | 0.13 µM [rising, full curve, poor fit]
3 | Cc1ccc(-c2nnn(CC(=O)N3CCCCC3)n2)o1 | -81 | 3.26 µM [falling, partial curve] | 
4 | O=C(O)CN1C(=O)c2cccc3c(Br)ccc1c23 |  |  | 5.8 µM [rising, full curve]
5 | CN1CCC(=O)N([C@H](CSc2ccccc2)Cc2ccccc2)CC1 | 21 |  | 
6 | COc1cccc(C2CC(c3ccccc3)=NN2S(=O)(=O)c2ccc(C)cc2)c1OC (stereo not given) | 20.6 | 3.26 µM [rising, full curve, poor fit] | 
7 | CCOC(=O)C1=C(C)n2c(s/c(=C3\C(=O)Nc4ccccc43)c2=O)=NC1c1ccc(OC)cc1 (stereo not given) |  |  | 2.59 µM [falling, single point]
8 | CCOC(=O)C1CCCN(C(=O)C(=O)c2cn(CC(=O)N3CCOCC3)c3ccccc23)C1 (stereo not given) | -12.2 |  | 8.2 µM [falling, partial curve]
9 | COc1cc(OC)cc(C(=O)N/N=C/c2ccc(OC)c(COc3ccc(F)cc3)c2)c1 | -18 |  | 29.1 µM [falling, partial curve, poor fit]
10 | CCC(C)C(NC(=O)OC(C)(C)C)C(=O)NC(C)C(N)=O (stereo not drawn) (Boc-Ile-Ala-NH2; configuration not given here) | 22.6 |  | 0.731 µM [rising, full curve, poor fit]
11 | Cc1ccc(CNC(=O)c2ccc(N3CCC4(CC3)CC(c3ccccc3)=NO4)c(NC(=O)c3c(Cl)cccc3Cl)c2)cc1 | -23.4 |  | 29.1 µM [falling, single point]
12 | CC(C)c1ccc(NC2CCCN(C(=O)CCN3CCCCO3)C2)cc1 (stereo not given) | 37.2 | 0.206 µM [rising, full curve, poor fit] | 0.092 µM [rising, full curve]
13 | O=C(Nc1ccc(F)c(F)c1)c1cnc(-c2ccccc2)nc1-c1ccccc1 | -4.26 |  | 6.51 µM [rising, single point]
14 | N/C(=N\O)c1ccc(NC(=O)c2ccc(Br)o2)cc1 | 14.1 |  | 18.4 µM [falling, single point]
15 | CN(Cc1ccc(C(F)(F)F)cc1)C(=O)c1ccc2ccccc2n1 | -3.17 |  | 
16 | COc1ccc(Br)c(-c2nnc(CS(=O)(=O)c3ccccc3)o2)c1 | 10.3 |  | 0.00411 µM [rising, full curve, poor fit]
17 | CC1C(=O)CCN(C(C)C)C1C (stereo not given) | -55.1 |  | 
18 | CC/C(=N\NC(=O)c1ccc2c(c1)OCO2)C12CC3CC(CC(C3)C1)C2 |  |  | 0.651 µM [rising, single point]
19 | COc1ccc(C(=O)n2cnc3ccccc32)cc1[N+](=O)[O-] | -4.46 |  | 14.6 µM [rising, partial curve]
20 | CCOC(=O)c1[nH]c(C)c(/C(O)=C2\C(=O)C(=O)N(CCCN(C)C)C2c2ccncc2)c1C (stereo not given) | -12.5 | 0.82 µM [falling, full curve, poor fit] | 

Individual results from the entries so far.
COc1ccc(C(=O)n2cnc3ccccc32)cc1[N+](=O)[O-] – AC50 [2]: 14.6 µM [rising, partial curve]
Cc1ccc(CNC(=O)c2ccc(N3CCC4(CC3)CC(c3ccccc3)=NO4)c(NC(=O)c3c(Cl)cccc3Cl)c2)cc1 – AC50 [2]: 29.1 µM [falling, single point]

(cont.)

Row | Structure (SMILES) | cell number change [%] | AC50 [1] | AC50 [2]
21 | CC(=O)N1CCC(N(C(=O)Nc2ccc(C)c(C)c2)C2CCCC2)CC1 |  |  | 6.51 µM [rising, single point]
22 | Cc1ccc(-c2cc(O)cc3sc(=O)oc23)cc1C | -41.9 |  | 
23 | O=[N+]([O-])c1cc(S(=O)(=O)N2CCCC2)ccc1NN=C1CCCC1 | 77.3 | 16.4 µM [rising, partial curve] | 0.411 µM [rising, full curve]
24 | COc1cc(NC(=O)COc2c(C)cc(C)cc2[N+](=O)[O-])c(OC)cc1Cl | 7.17 |  | 0.291 µM [rising, partial curve]
25 | CC1CCCCC12NC(=O)N(CC(=O)c1ccc[nH]1)C2=O (stereo not given) | 13.7 |  | 
26 | COc1cccc(NC(=O)C2CC(=O)N=C(N)S2)c1 (stereo not given) | 2.27 |  | 
27 | CC(=O)c1ccc(NS(=O)(=O)c2cc3c(cc2C)N(C)CCO3)cc1 | 23.9 |  | 10.3 µM [rising, partial curve]
28 | CCOc1ccc2[nH]c(=O)c(C(c3nnnn3Cc3ccco3)N3CCC(C)CC3)cc2c1 (stereo not given) |  |  | 7.31 µM [rising, partial curve]
29 | N#Cc1ccc(/C=C/C(=O)c2cccnc2)cc1 | -57 |  | 
30 | Nc1nnc(CC(c2ccccc2)c2ccccc2)s1 | 50.7 | 6.51 µM [rising, partial curve] | 
31 | CCCCN(CCCC)S(=O)(=O)c1ccc(NS(=O)(=O)c2ccc(NC(C)=O)cc2)cc1 | 45.1 | 1.64 µM [rising, partial curve] | 18.4 µM [rising, partial curve]
32 | C=CCNC(=O)c1cccc(OC2CCN(CC(C)(C)C)CC2)c1 | -6.2 |  | 3.66 µM [falling, full curve]
33 | FC(F)(F)c1cnc2c(-c3ccc(Cl)cc3Cl)noc2c1 | 17.3 | 0.0517 µM [rising, full curve, poor fit] | 1.46 µM [rising, partial curve]
34 | CCCN(C(=O)Cn1nc(C)c([N+](=O)[O-])c1C)c1c(N)n(Cc2ccccc2)c(=O)[nH]c1=O | -38.1 | 5.17 µM [falling, full curve, poor fit] | 5.8 µM [falling, full curve]
35 | COc1ccc(OC)c(-n2c(CNC3CCN(Cc4ccccc4)CC3)nc3ccccc3c2=O)c1 | 4.28 |  | 0.146 µM [falling, full curve, poor fit]
36 | COc1ccc([C@@H]2[C@H]3CN(C(C)=O)CC=C3C(C#N)=C(N)C2(C#N)C#N)c2ccccc12 | -5.2 |  | 6.51 µM [rising, partial curve]
37 | COc1cccc(CNc2ccc3[nH]c(=O)[nH]c3c2)c1OCc1ccccc1F | -38.2 | 4.11 µM [falling, partial curve] | 14.6 µM [falling, single point]
38 | COc1ccc(C(=O)N(CN2CCCC2=O)c2cc(C)on2)cc1OC | -11.2 |  | 0.164 µM [rising, full curve, poor fit]
39 | C/C(=N\NC(=O)c1cc(-c2cccs2)nc2ccccc12)c1ccccn1 |  | 0.291 µM [rising, partial curve] | 0.103 µM [rising, single point]
40 | CN(CC(=O)Nc1cccc(F)c1)C(=O)CCCNC(=O)c1ccc(Cl)cc1 | 72.5 | 16.4 µM [rising, single point] | 

Row | Structure (SMILES) | cell number change [%] | AC50 [1] | AC50 [2]
41 | CS(=O)(=O)c1ncc(Cl)c(C(=O)Nc2ccc3ccccc3c2)n1 | -15.3 |  | 
42 | CCC(=O)c1cn(CC(=O)Nc2cccc(OC)c2)c2ccccc12 | 99.4 | 29.1 µM [rising, single point] | 
43 | O=C1NC(c2ccccc2Br)=N/C1=C\c1ccco1 | 18.6 |  | 29.1 µM [rising, single point]
44 | N/C(=N\OC(=O)c1ccccc1)c1ccncc1 | 25.2 |  | 
45 | O=[N+]([O-])c1ccc(-c2csc(N3CCCCCC3)n2)cc1 | 9.8 |  | 29.1 µM [falling, single point]
46 | Cc1c(C(=O)OCC(=O)N(C)Cc2ccccc2)oc2ccccc12 | -8.56 |  | 20.6 µM [rising, partial curve, poor fit]
47 | CCOc1cc(S(=O)(=O)n2ccnc2)ccc1Br | 32.4 | 2.06 µM [rising, partial curve, poor fit] | 16.4 µM [rising, partial curve]
48 | COc1ccccc1CNC(=O)CCNS(=O)(=O)c1cc(Br)cnc1N | 39.9 | 16.4 µM [rising, single point] | 0.164 µM [rising, full curve, poor fit]
49 | CCOc1cc(/C=C/c2ccc3cccc([N+](=O)[O-])c3n2)ccc1OCC(=O)N(C)C |  | 0.651 µM [rising, partial curve] | 0.58 µM [rising, full curve]
50 | COc1ccc(NC(=O)c2c(F)cccc2F)cc1S(=O)(=O)Nc1ccc(Br)cc1 | -16.7 |  | 4.11 µM [rising, partial curve]
51 | O=C(NNC(=O)c1ccc(Cl)c(S(=O)(=O)Nc2ccc(Cl)cc2)c1)c1ccc(=O)[nH]c1 | -31.3 | 5.8 µM [falling, full curve] | 
52 | COc1ccc(N2C(=O)C(C)C(Cc3ccc(C)cc3)C2=O)cc1 (stereo not given) | 10.9 |  | 18.4 µM [falling, single point]
53 | O=C(O)CCN1C(=O)NC2(CCCC2)C1=O | 19.9 |  | 0.0058 µM [falling, full curve, poor fit]
54 | CCOc1ccc(NC(=O)c2cc3c(C)nc4ccccc4c3o2)cc1 |  |  | 18.4 µM [rising, partial curve, poor fit]
55 | CC(C)C(c1nnnn1C1CCCC1)N1c2ccccc2CC1C (stereo not given) |  | 0.92 µM [rising, partial curve] | 0.731 µM [rising, single point]
56 | Cc1cc(N2CCOCC2)nc2ccc(NC(=O)CCC(=O)N3CCN(c4ccc(F)cc4)CC3)cc12 | 28.6 |  | 29.1 µM [rising, single point]
57 | COc1cc(NC(=O)C2CCN(c3cnccn3)CC2)cc(OC)c1 | -14.1 |  | 29.1 µM [falling, partial curve]
58 | CCCCN(C(=O)c1cccc(C)c1)c1c(N)n(CCC)c(=O)[nH]c1=O | 2.5 |  | 0.146 µM [rising, full curve, poor fit]
